# Paper PMC12432130
# Protein sequences, listed by entry. Tags and fused reporters are not part of them.
# UniProt O75494: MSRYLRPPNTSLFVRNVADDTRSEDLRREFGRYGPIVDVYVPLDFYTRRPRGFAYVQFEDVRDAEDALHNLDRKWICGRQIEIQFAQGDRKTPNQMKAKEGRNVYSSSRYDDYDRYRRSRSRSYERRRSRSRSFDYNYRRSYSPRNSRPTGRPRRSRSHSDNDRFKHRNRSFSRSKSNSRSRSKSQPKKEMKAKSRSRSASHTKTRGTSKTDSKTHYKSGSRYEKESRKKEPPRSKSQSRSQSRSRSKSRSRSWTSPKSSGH
# T1: Flag-tagged TTK protein kinase (UniProt P33981)
# T1 sequence: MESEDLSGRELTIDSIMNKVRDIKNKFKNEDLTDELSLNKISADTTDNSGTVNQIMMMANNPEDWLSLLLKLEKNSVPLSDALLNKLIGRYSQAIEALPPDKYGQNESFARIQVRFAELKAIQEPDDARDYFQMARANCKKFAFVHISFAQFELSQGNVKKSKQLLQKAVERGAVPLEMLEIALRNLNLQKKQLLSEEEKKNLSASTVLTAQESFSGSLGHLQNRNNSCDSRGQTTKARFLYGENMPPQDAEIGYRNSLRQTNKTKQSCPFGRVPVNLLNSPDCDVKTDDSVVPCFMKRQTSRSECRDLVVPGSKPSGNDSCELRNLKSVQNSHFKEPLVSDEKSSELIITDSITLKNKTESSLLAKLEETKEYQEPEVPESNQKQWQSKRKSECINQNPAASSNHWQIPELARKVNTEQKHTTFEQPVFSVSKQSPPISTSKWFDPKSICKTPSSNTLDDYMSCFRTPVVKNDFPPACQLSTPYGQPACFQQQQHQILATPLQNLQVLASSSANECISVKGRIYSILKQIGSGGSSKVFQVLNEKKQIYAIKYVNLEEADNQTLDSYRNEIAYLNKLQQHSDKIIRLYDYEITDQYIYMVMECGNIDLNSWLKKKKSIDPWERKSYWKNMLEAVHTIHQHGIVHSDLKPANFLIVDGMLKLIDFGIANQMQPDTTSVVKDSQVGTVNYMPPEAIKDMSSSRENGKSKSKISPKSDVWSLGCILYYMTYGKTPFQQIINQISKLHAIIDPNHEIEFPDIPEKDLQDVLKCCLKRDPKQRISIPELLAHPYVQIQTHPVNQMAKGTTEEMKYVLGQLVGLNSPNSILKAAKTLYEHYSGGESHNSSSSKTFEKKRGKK
# B1: SRSF7 (protein, UniProt Q16629 1-238)
# chain: MSRYGRYGGETKVYVGNLGTGAGKGELERAFSYYGPLRTVWIARNPPGFAFVEFEDPRDAEDAVRGLDGKVICGSRVRVELSTGMPRRSRFDRPPARRPFDPNDRCYECGEKGHYAYDCHRYSRRRRSRSRSRSHSRSRGRRYSRSRSRSRGRRSRSASPRRSRSISLRRSRSASLRRSRSGSIKGSRYFQSPSRSRSRSRSISRPRSSRSKSRSPSPKRSRSPSGSPRRSASPERMD
# B2: SRSF3 (protein, UniProt P84103 1-164)
# chain: MHRDSCPLDCKVYVGNLGNNGNKTELERAFGYYGPLRSVWVARNPPGFAFVEFEDPRDAADAVRELDGRTLCGCRVRVELSNGEKRSRNRGPPPSWGRRPRDDYRRRSPPPRRRSPRRRSFSRSRSRSLSRDRRRERSLSRERNHKPSRSFSRSRSRSRSNERK
# B3: SRSF2 (protein, UniProt Q01130 1-221)
# chain: MSYGRPPPDVEGMTSLKVDNLTYRTSPDTLRRVFEKYGRVGDVYIPRDRYTKESRGFAFVRFHDKRDAEDAMDAMDGAVLDGRELRVQMARYGRPPDSHHSRRGPPPRRYGGGGYGRRSRSPRRRRRSRSRSRSRSRSRSRSRYSRSKSRSRTRSRSRSTSKSRSARRSKSKSSSVSRSRSRSRSRSRSRSPPPVSKRESKSRSRSKSPPKSPEEEGAVSS
# Target: T1, Flag-tagged TTK protein kinase
# Test: affinity purification with mass spectrometry; Flag-TTK expressed in RT-112 cells, immunoprecipitated with Flag antibody; co-immunoprecipitated proteins silver stained, bands excised and identified by MS
row,binding,Molecule
1,binds,SRSF10 (from UniProt O75494 1-262)
2,binds,B1
3,binds,B2
4,binds,B3

# No constants are given. Whether binding was seen depends on the method and setting. In cells and extracts the contact can be indirect. These calls come from enrichment with a bait or labelling near it, and not all partners need be listed. Sequences can lack the tags named with a protein.
